Data on eight molecules can be found in PubChem BioAssay AID270 (DTP/NCI, 2004).

This assay relates to BDF1 mice, s.c. Lewis lung carcinoma, T/C %. Put plainly: NCI In Vivo Anticancer Drug Screen. Data for tumor model Lewis Lung Carcinoma (subcutaneous) in B6D2F1 (BDF1) mice. Here is the method: The antitumor activity of compounds was measured in mice bearing transplantable tumors. Survival or tumor size were measured and the results are expressed as the measurement made in the treated group (T) divided by the measurement made in the vehicle treated control group (C). The tumor model used in this assay is Lewis Lung Carcinoma (subcutaneous) in B6D2F1 (BDF1) mice

Where [1] appears, read: T/C endpoint: median survival time, dose: 3.0 mg/kg/injection, schedule: Q01DX009 (ip), vehicle: saline with Tween-80, higher T/C = longer survival.
[2] abbreviates: T/C endpoint: median survival time, dose: 6.0 mg/kg/injection, schedule: Q01DX009 (ip), vehicle: saline with Tween-80, higher T/C = longer survival.
The mark [3] stands for this setting: T/C endpoint: median survival time, dose: 24.0 mg/kg/injection, schedule: Q01DX009 (ip), vehicle: saline with Tween-80, higher T/C = longer survival.

The list is a part of this screen's results and no random one: it covers a few groups of compounds. Other doses and runs of a compound may be missing. T/C: endpoint of the treated group in % of that of the vehicle group. Some entries show no survivor count and are marked so; the dose need not have been tolerated. Schedule codes are those of the source, read here as Q, the interval in days (D) or hours (H), X, the number of doses. For survival time, this PubChem deposit counts one and a half times the control or more as active, and values a quarter to a half above the control carry no call in these data; other NCI protocols may use other cut-offs. Some entries hold several experiments; the values are given in rising order.

As to `O=C(O)CCc1ccc(CN(CCCl)CCCl)cc1`, the T/C (T/C endpoint: mean tumor weight, dose: 0.5 mg/kg/injection, schedule: Q01DX011 (ip), vehicle: other, evaluation day not shown, higher T/C = larger tumour) was 37 % of control [survivor count not shown].
`CC(Cl)CNCC(C)Cl` (stereo not given): the T/C (T/C endpoint: median survival time, dose: 12.5 mg/kg/injection, schedule: Q01DX009 (ip), vehicle: saline, higher T/C = longer survival) was 94 % of control [survivor count not shown]; the T/C (T/C endpoint: median survival time, dose: 25.0 mg/kg/injection, schedule: Q01DX009 (ip), vehicle: saline, higher T/C = longer survival) was 104 % of control [survivor count not shown]; the T/C (T/C endpoint: median survival time, dose: 50.0 mg/kg/injection, schedule: Q01DX009 (ip), vehicle: saline, higher T/C = longer survival) is 108 % of control [survivor count not shown].
Take `BrCCN(CCBr)c1ccc2c(c1)Cc1ccccc1-2`: the T/C by setting is: under setting [1], 120 % of control [survivor count not shown]; under setting [2], 97 % of control [survivor count not shown]; (T/C endpoint: median survival time, dose: 12.0 mg/kg/injection, schedule: Q01DX009 (ip), vehicle: saline with Tween-80, higher T/C = longer survival) 95 % of control [survivor count not shown]; under setting [3], 112 % of control [survivor count not shown]; (T/C endpoint: median survival time, dose: 48.0 mg/kg/injection, schedule: Q01DX009 (ip), vehicle: saline with Tween-80, higher T/C = longer survival) 101 % of control [survivor count not shown].
In the case of `CC(C(=O)O)N(CCCl)CCCl` (stereo not given), the T/C runs as follows: (T/C endpoint: mean tumor weight, dose: 2.0 mg/kg/injection, schedule: Q01DX011 (ip), vehicle: saline, evaluation day not shown, higher T/C = larger tumour) 87 % of control [survivor count not shown]; (T/C endpoint: mean tumor weight, dose: 4.0 mg/kg/injection, schedule: Q01DX011 (ip), vehicle: saline, evaluation day not shown, higher T/C = larger tumour) 76 % of control [survivor count not shown].
Turning to `Cc1ccc(C(=O)O)cc1N(CCCl)CCCl`, the T/C by setting is: (T/C endpoint: median survival time, dose: 1.56 mg/kg/injection, schedule: Q01DX009 (ip), vehicle: Klucel (hydroxypropylcellulose) (HPC), higher T/C = longer survival) 102 [survivor count not shown], 113 [survivor count not shown], 187 % of control [survivor count not shown]; (T/C endpoint: median survival time, dose: 3.12 mg/kg/injection, schedule: Q01DX009 (ip), vehicle: Klucel (hydroxypropylcellulose) (HPC), higher T/C = longer survival) 102 % of control [survivor count not shown]; (T/C endpoint: median survival time, dose: 3.13 mg/kg/injection, schedule: Q01DX009 (ip), vehicle: Klucel (hydroxypropylcellulose) (HPC), higher T/C = longer survival) 99 % of control [survivor count not shown]; (T/C endpoint: median survival time, dose: 6.25 mg/kg/injection, schedule: Q01DX009 (ip), vehicle: Klucel (hydroxypropylcellulose) (HPC), higher T/C = longer survival) 100 [survivor count not shown], 103 [survivor count not shown], 187 % of control [survivor count not shown]; (T/C endpoint: median survival time, dose: 12.5 mg/kg/injection, schedule: Q01DX009 (ip), vehicle: Klucel (hydroxypropylcellulose) (HPC), higher T/C = longer survival) 187 % of control [survivor count not shown].
In the case of `ClCCN(CCCl)c1ccccc1`, the T/C reads like this: under setting [1], 108 % of control [survivor count not shown]; under setting [2], 107 % of control [survivor count not shown]; under setting [3], 137 % of control [survivor count not shown].
As to `O=C(CCN(CCCl)CCCl)c1cccc([N+](=O)[O-])c1`, the T/C reads like this: (T/C endpoint: median survival time, dose: 3.0 mg/kg/injection, schedule: Q01DX009 (ip), vehicle: Klucel (hydroxypropylcellulose) (HPC), higher T/C = longer survival) 109 % of control [survivor count not shown]; (T/C endpoint: median survival time, dose: 6.0 mg/kg/injection, schedule: Q01DX009 (ip), vehicle: Klucel (hydroxypropylcellulose) (HPC), higher T/C = longer survival) 109 % of control [survivor count not shown].
Turning to `CCC1(CC)NC(=O)N(CCN(CCCl)CCCl)C1=O`, the T/C is, setting by setting: (T/C endpoint: median survival time, dose: 0.78 mg/kg/injection, schedule: Q01DX009 (ip), vehicle: saline, higher T/C = longer survival) 97 % of control [survivor count not shown]; (T/C endpoint: median survival time, dose: 1.56 mg/kg/injection, schedule: Q01DX009 (ip), vehicle: saline, higher T/C = longer survival) 130 % of control [survivor count not shown]; (T/C endpoint: median survival time, dose: 3.12 mg/kg/injection, schedule: Q01DX009 (ip), vehicle: saline, higher T/C = longer survival) 103 [survivor count not shown] and 165 % of control [survivor count not shown]; (T/C endpoint: median survival time, dose: 6.25 mg/kg/injection, schedule: Q01DX009 (ip), vehicle: saline, higher T/C = longer survival) 100 [survivor count not shown] and 150 % of control [survivor count not shown].
